Data reported in publication PMC10350107.
These are yes or no findings as the source states them, for the method shown. Where a sequence is shown, tags or fusion partners need not be part of it.

Target: T1, FLAG-MCM8, wild type human MCM8 (human), Q9UJA3
T1 chain: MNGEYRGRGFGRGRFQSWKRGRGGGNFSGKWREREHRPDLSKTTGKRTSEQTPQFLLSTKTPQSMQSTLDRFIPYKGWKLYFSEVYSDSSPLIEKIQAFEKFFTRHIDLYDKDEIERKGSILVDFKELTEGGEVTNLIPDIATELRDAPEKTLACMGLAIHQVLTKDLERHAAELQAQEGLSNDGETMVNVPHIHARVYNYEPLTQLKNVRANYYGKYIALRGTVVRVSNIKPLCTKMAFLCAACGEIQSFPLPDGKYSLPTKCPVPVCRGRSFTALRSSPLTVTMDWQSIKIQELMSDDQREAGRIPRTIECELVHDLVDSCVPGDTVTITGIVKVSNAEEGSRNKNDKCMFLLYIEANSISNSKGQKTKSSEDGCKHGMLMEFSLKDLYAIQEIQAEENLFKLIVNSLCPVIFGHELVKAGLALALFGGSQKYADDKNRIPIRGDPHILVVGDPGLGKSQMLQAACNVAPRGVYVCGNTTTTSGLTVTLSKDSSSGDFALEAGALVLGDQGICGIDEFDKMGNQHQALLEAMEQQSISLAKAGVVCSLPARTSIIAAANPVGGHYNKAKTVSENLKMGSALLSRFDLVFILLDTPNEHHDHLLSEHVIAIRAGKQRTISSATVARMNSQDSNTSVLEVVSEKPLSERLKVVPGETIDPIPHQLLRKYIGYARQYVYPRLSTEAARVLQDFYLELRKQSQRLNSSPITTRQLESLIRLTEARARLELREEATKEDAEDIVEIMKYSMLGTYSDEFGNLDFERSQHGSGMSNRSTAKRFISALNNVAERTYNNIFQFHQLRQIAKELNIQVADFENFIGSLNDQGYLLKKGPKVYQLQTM
Assay: mass photometry; 50 mM Tris-HCl pH 7.5, 100 mM NaCl; 50–200 nM final protein; no DNA; for MCM8–9 oligomers are counted in subunits (heterodimer 266 kDa, hexamer 798 kDa): heterodimers to tetramers and hexamers; both purified
Details: remark: other sources report otherwise

B1: FLAG-MCM8, wild type human MCM8, Q9UJA3 1-840 (protein)
chain: MNGEYRGRGFGRGRFQSWKRGRGGGNFSGKWREREHRPDLSKTTGKRTSEQTPQFLLSTKTPQSMQSTLDRFIPYKGWKLYFSEVYSDSSPLIEKIQAFEKFFTRHIDLYDKDEIERKGSILVDFKELTEGGEVTNLIPDIATELRDAPEKTLACMGLAIHQVLTKDLERHAAELQAQEGLSNDGETMVNVPHIHARVYNYEPLTQLKNVRANYYGKYIALRGTVVRVSNIKPLCTKMAFLCAACGEIQSFPLPDGKYSLPTKCPVPVCRGRSFTALRSSPLTVTMDWQSIKIQELMSDDQREAGRIPRTIECELVHDLVDSCVPGDTVTITGIVKVSNAEEGSRNKNDKCMFLLYIEANSISNSKGQKTKSSEDGCKHGMLMEFSLKDLYAIQEIQAEENLFKLIVNSLCPVIFGHELVKAGLALALFGGSQKYADDKNRIPIRGDPHILVVGDPGLGKSQMLQAACNVAPRGVYVCGNTTTTSGLTVTLSKDSSSGDFALEAGALVLGDQGICGIDEFDKMGNQHQALLEAMEQQSISLAKAGVVCSLPARTSIIAAANPVGGHYNKAKTVSENLKMGSALLSRFDLVFILLDTPNEHHDHLLSEHVIAIRAGKQRTISSATVARMNSQDSNTSVLEVVSEKPLSERLKVVPGETIDPIPHQLLRKYIGYARQYVYPRLSTEAARVLQDFYLELRKQSQRLNSSPITTRQLESLIRLTEARARLELREEATKEDAEDIVEIMKYSMLGTYSDEFGNLDFERSQHGSGMSNRSTAKRFISALNNVAERTYNNIFQFHQLRQIAKELNIQVADFENFIGSLNDQGYLLKKGPKVYQLQTM
B1 was tested, and the binding was “no binding”.
